Binding data for three molecules are collected here from doi:10.1101/2020.08.09.242891 (bioRxiv, 2020).

Like-named read-outs stand apart in the source and are kept apart here. No constants are given. Whether binding was seen depends on the method and setting. In cells and extracts the contact can be indirect. Some results given as binding are weak or reduced against the parent protein; the word gives no strength. For some assays here: Where a sequence is shown, tags or fusion partners need not be part of it.

Common to all, as to assay: co-IP
Assay [1] addresses T1, HA-PKD1 (protein kinase D1) (UniProt Q15139).
T1 sequence: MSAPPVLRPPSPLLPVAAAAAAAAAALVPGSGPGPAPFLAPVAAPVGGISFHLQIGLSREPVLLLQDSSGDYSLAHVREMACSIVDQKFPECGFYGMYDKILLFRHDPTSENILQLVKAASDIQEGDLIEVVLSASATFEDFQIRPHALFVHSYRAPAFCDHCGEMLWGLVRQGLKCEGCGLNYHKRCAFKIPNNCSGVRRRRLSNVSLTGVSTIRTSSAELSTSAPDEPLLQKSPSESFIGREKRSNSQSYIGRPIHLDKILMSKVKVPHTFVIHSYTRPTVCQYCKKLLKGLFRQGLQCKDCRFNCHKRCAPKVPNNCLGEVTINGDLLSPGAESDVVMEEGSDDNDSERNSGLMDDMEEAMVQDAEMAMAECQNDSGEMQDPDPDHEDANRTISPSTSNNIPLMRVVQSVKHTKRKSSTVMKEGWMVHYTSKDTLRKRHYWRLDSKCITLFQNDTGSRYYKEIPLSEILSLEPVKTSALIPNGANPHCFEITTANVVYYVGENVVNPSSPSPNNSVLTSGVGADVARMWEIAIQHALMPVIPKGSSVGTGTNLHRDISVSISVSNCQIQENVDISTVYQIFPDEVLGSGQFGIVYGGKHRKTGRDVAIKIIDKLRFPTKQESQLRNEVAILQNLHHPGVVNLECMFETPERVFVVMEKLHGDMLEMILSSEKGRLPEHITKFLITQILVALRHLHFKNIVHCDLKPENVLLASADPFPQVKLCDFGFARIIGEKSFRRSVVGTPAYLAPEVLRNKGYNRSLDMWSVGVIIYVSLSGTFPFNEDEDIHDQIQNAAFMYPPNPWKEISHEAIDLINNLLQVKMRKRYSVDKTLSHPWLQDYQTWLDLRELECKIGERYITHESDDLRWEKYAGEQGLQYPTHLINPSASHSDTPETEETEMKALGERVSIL

In assay [2] the target is T2, endogenous PKD1 (protein kinase D1) (human (endogenous in HEK293T)) (UniProt Q15139).
T2 sequence: T1 sequence

Assay [3] addresses T3, FLAG-WT-CBX8 (UniProt Q9HC52).
T3 sequence: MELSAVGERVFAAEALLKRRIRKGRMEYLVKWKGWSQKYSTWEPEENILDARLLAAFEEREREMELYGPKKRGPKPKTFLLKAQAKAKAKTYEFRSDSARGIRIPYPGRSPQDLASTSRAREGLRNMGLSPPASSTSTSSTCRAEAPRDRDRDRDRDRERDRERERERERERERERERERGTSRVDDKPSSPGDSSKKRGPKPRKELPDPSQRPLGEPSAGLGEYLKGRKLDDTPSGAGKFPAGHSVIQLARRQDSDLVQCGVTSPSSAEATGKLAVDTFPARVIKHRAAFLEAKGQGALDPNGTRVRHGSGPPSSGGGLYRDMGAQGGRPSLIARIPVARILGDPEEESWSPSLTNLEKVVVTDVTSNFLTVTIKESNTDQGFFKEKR

Assay [4] has as its target T3, FLAG-WT-CBX8. The source holds these as a separate data set.
Assay [5] addresses T3, FLAG-WT-CBX8. This is another data set of the same source.

B1: FLAG-WT-CBX8 (protein, UniProt Q9HC52 1-389)
chain: T3 sequence
For B1, in assay [1], the binding entry is “binds”.

B2: endogenous CBX8 (chromobox 8) (protein, UniProt Q9HC52 1-389)
chain: T3 sequence
B2: in assay [2], the binding entry is reported as “binds”.

B3: HA-PKD1 (protein kinase D1) (enzyme, UniProt Q15139 1-912)
chain: T1 sequence
With B3, the binding entry in the assay with FLAG-WT-CBX8 [3], with FLAG-WT-CBX8 [4] and with FLAG-WT-CBX8 [5] was “binds” throughout.
